Measured values: patent US20250011405A1
Results are given in words; binding and its absence hold for the method and conditions named. Some binding calls cover weakened binding; strength is not graded here.

Protein sequences, listed by entry. Tags and fused reporters are not part of them. Lines headed by an entry give the natural chain unless they say otherwise; changes in a name come on top.
UniProt P26447: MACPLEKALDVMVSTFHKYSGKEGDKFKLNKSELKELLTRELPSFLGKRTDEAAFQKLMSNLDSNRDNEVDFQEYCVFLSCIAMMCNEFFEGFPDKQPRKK

Molecular target: recombinant human S100A4 protein (human) (UniProt P26447)
Test: sandwich ELISA: plate coated with 10 µg/ml 5C3 mAb as capture, mouse serum/plasma, detection with rabbit anti-S100A4 polyclonal antibody (DAKO); standard curve with rhS100A4

binding: binds
B1: 5C3 antibody, produced by the hybridoma cell line 5C3-1B8-1F4 with deposit number ECACC 10022401 (antibody, V domains shown)
VH: EAQLQQSGAELVKPGASVKLSCTASGFNIQETYMHWVKQRPEQGLEWIGRIDPANGNTKDDPKFQGKASITVDTSSNTAYLQLSSLTSEDTAVYYCASSYAMDYWGQGTSVTVSS
VL: DVLMTQTPLSLPVSLGDQASISCRSSQSIVHSNGNTYLEWYLQKTGQSPELLIYKVSNRLSGVPDRFSGSGSGTDFTLKISRVEAEDLGVYYCFQGSHVPFTFGSGTKLEIK
